Source: PubChem BioAssay AID1259254 (NCATS, 2017)
Assay: 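Gene knock-downs that lead to re-replication, shown by excess G2 DNA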 (primary screen). Cells: human HCT116 colorectal cancer cells. Reagents: single siRNA against human genes. Timing: 3 days. Read-out: 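Nuclei stained with Hoechst and imaged; cell-cycle phase assigned by DNA content; G2 share scaled per plate, non-targeting siRNA 0%, GMNN siRNA 100%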. Direction: G2 robust z-score: higher = more G2 cells, more excess DNA replication. Call rule: 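Active siRNAs have a G2 robust z of 5 or more median absolute deviations over the median, which in these data means about 38% or higher of GMNN control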.
This is one part, drawn at random, of about 59,000 deposited reagents. Of all reagents, about 1,550 (2.6%) got an active call. 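G2 share is only a proxy for re-replication; each gene was hit by three separate siRNAs, and active genes were retested.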 Entries without a mark were called inactive. The numbers tell different reagents against one gene apart. Not all columns of the deposit are shown. The record does not give: the amount of reagent.

How did the screen score H2BC3 (GeneID 3018) #1?
G2 robust z-score: -0.352

With H2BC3 (GeneID 3018) #2, what was measured?
G2 robust z-score: -0.59

Which result is listed for H2BC3 (GeneID 3018) #3?
G2 robust z-score: 3.34

For SGSM1 (GeneID 129049) #1, what does the deposit list?
G2 robust z-score: -1.02

With SGSM1 (GeneID 129049) #2, what was measured?
G2 robust z-score: 0.779

With SGSM1 (GeneID 129049) #3, what does the deposit list?
G2 robust z-score: -0.16

Which result is listed for PPP2R5A (GeneID 5525) #1?
G2 robust z-score: -0.378

Which result is listed for PPP2R5A (GeneID 5525) #2?
G2 robust z-score: 0.332

With PPP2R5A (GeneID 5525) #3, what was measured?
G2 robust z-score: 0.00118

Which result is listed for ABCA1 (GeneID 19) #1?
G2 robust z-score: -0.0263

What did the screen give for ABCA1 (GeneID 19) #2?
G2 robust z-score: 1.1

Which result is listed for ABCA1 (GeneID 19) #3?
G2 robust z-score: 2.19

With CTRC (GeneID 11330) #1, what does the deposit list?
G2 robust z-score: -0.453

For CTRC (GeneID 11330) #2, what was measured?
G2 robust z-score: 0.41

With CTRC (GeneID 11330) #3, how do the results read?
G2 robust z-score: -0.525

With HCFC1 (GeneID 3054) #1, what was measured?
G2 robust z-score: -0.374

Which result is listed for HCFC1 (GeneID 3054) #2?
G2 robust z-score: -1.22

What is on record for HCFC1 (GeneID 3054) #3?
G2 robust z-score: 4.23

Entries listed so far whose gene name starts with S or s:
SGSM1 (GeneID 129049) #1 | G2 robust z-score: -1.02
SGSM1 (GeneID 129049) #2 | G2 robust z-score: 0.779
SGSM1 (GeneID 129049) #3 | G2 robust z-score: -0.16

Continued:
With NOL11 (GeneID 25926) #1, what was measured?
G2 robust z-score: 1.78

Which result is listed for NOL11 (GeneID 25926) #2?
G2 robust z-score: 1.28

For NOL11 (GeneID 25926) #3, what does the deposit list?
G2 robust z-score: 1.23

With COL9A3 (GeneID 1299) #1, what was measured?
G2 robust z-score: 0.643

For COL9A3 (GeneID 1299) #2, what does the deposit list?
G2 robust z-score: -0.366

What did the screen give for COL9A3 (GeneID 1299) #3?
G2 robust z-score: -0.41

How did the screen score SDC4 (GeneID 6385) #1?
G2 robust z-score: -0.822

For SDC4 (GeneID 6385) #2, how do the results read?
G2 robust z-score: -0.623

With SDC4 (GeneID 6385) #3, how do the results read?
G2 robust z-score: -0.453

How did the screen score LINC02817 (GeneID 400804) #1?
G2 robust z-score: -0.288

For LINC02817 (GeneID 400804) #2, what does the deposit list?
G2 robust z-score: -0.217

How did the screen score LINC02817 (GeneID 400804) #3?
G2 robust z-score: 0.367
